Record: PubChem BioAssay AID1259405 (NCATS, 2018)
Assay: 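Mouse-designed siRNAs used to find CHO productivity engineering targets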 (primary screen). System: Chinese hamster CHO-K1 ovary cells with stable secreted eGFP expression. Reagent: single siRNA against mouse genes, 0.8 pmol siRNA per well (2 µl of 400 nM stock). Time to read-out: 3 days. Read-out: 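Percent of the per-plate non-targeting control median for intracellular GFP per well by laser scanning cytometry and for cell viability by ATP luminescence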. Reading the numbers: GFP, % of control: higher = more GFP per well, higher productivity; viability (ATP), % of control: higher = more viable cells (more ATP). Hit rule: 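Called active when intracellular GFP, relative to negative control, is at or above 120%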.
This is an unselected part of about 50,000 reagents tested. Of all reagents, about 4,000 (8%) were called active. 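Mouse siRNA library applied to hamster cells; one well for each siRNA.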 Reagents against one gene are numbered here. Reagent sequences are not shown.

| gene symbol | siRNA no. | GFP, % of control | viability (ATP), % of control | outcome |
| --- | --- | --- | --- | --- |
| Acvr2a (activin receptor IIA) | 1 | 85.8 | 85.7 | inactive |
| Ugt1a6a (UDP glucuronosyltransferase 1 family, polypeptide A6A) | 1 | 94.5 | 104 | inactive |
| Ugt1a6a (UDP glucuronosyltransferase 1 family, polypeptide A6A) | 2 | 74.7 | 95.2 | inactive |
| Ugt1a6a (UDP glucuronosyltransferase 1 family, polypeptide A6A) | 3 | 70.8 | 69.8 | inactive |
| Krt8 (keratin 8) | 1 | 86.5 | 95 | inactive |
| Krt8 (keratin 8) | 2 | 81 | 85.4 | inactive |
| Bccip (BRCA2 and CDKN1A interacting protein) | 1 | 43 | 61.6 | inactive |
| Bccip (BRCA2 and CDKN1A interacting protein) | 2 | 58.6 | 77.2 | inactive |
| Bccip (BRCA2 and CDKN1A interacting protein) | 3 | 139 | 139 | active |
| Tmem183a (transmembrane protein 183A) | 1 | 73.4 | 92.1 | inactive |
| Tmem183a (transmembrane protein 183A) | 2 | 78.5 | 85.9 | inactive |
| Tmem183a (transmembrane protein 183A) | 3 | 36.1 | 49.9 | inactive |
| Elp4 (elongator acetyltransferase complex subunit 4) | 1 | 65.5 | 71.9 | inactive |
| Elp4 (elongator acetyltransferase complex subunit 4) | 2 | 113 | 87.8 | inactive |
| Elp4 (elongator acetyltransferase complex subunit 4) | 3 | 85.4 | 65.7 | inactive |
| Nop2 (NOP2 nucleolar protein) | 1 | 95.4 | 77.2 | inactive |
| Nop2 (NOP2 nucleolar protein) | 2 | 96.6 | 88 | inactive |
| Nop2 (NOP2 nucleolar protein) | 3 | 45.8 | 25.9 | inactive |
| Ccdc142 (coiled-coil domain containing 142) | 1 | 71.4 | 70.6 | inactive |
| Ccdc142 (coiled-coil domain containing 142) | 2 | 28.9 | 29.4 | inactive |
| Ccdc142 (coiled-coil domain containing 142) | 3 | 64.2 | 81.3 | inactive |
| Myh4 (myosin, heavy polypeptide 4, skeletal muscle) | 1 | 67.3 | 98.2 | inactive |
| Myh4 (myosin, heavy polypeptide 4, skeletal muscle) | 2 | 87.9 | 105 | inactive |
| Sp140 (Sp140 nuclear body protein) | 1 | 66.8 | 63.5 | inactive |
| Sp140 (Sp140 nuclear body protein) | 2 | 94.6 | 55.8 | inactive |
| Sp140 (Sp140 nuclear body protein) | 3 | 54.6 | 54 | inactive |
| Ssbp4 (single stranded DNA binding protein 4) | 1 | 88.9 | 84.8 | inactive |
| Ssbp4 (single stranded DNA binding protein 4) | 2 | 70.6 | 61.8 | inactive |
| Ssbp4 (single stranded DNA binding protein 4) | 3 | 72.7 | 62.1 | inactive |
| Ncstn (nicastrin) | 1 | 25.2 | 42.2 | inactive |
| Ncstn (nicastrin) | 2 | 73 | 97 | inactive |
| Ncstn (nicastrin) | 3 | 107 | 63.7 | inactive |
| Nt5dc3 (5'-nucleotidase domain containing 3) | 1 | 84.6 | 94.5 | inactive |
| Nt5dc3 (5'-nucleotidase domain containing 3) | 2 | 78.2 | 79.7 | inactive |
| Nt5dc3 (5'-nucleotidase domain containing 3) | 3 | 121 | 107 | active |
| Letm1 (leucine zipper-EF-hand containing transmembrane protein 1) | 1 | 67.2 | 101 | inactive |
| Letm1 (leucine zipper-EF-hand containing transmembrane protein 1) | 2 | 98.7 | 63.4 | inactive |
| Guf1 (GUF1 homolog, GTPase) | 1 | 51.8 | 53.5 | inactive |
| Guf1 (GUF1 homolog, GTPase) | 2 | 47.8 | 20.1 | inactive |
| Guf1 (GUF1 homolog, GTPase) | 3 | 72.6 | 76.2 | inactive |
| Eng (endoglin) | 1 | 132 | 126 | active |
| Eng (endoglin) | 2 | 72.3 | 69.5 | inactive |
| Eng (endoglin) | 3 | 31.5 | 22.1 | inactive |
| Or4k15 (olfactory receptor family 4 subfamily K member 15) | 1 | 115 | 103 | inactive |
| Or4k15 (olfactory receptor family 4 subfamily K member 15) | 2 | 68.2 | 84 | inactive |
| Or4k15 (olfactory receptor family 4 subfamily K member 15) | 3 | 102 | 14.2 | inactive |
| Nde1 (nudE neurodevelopment protein 1) | 1 | 97.6 | 86.9 | inactive |
| Nde1 (nudE neurodevelopment protein 1) | 2 | 133 | 43.3 | active |
| Nde1 (nudE neurodevelopment protein 1) | 3 | 93.4 | 64.3 | inactive |
| Gse1 (genetic suppressor element 1, coiled-coil protein) | 1 | 74.5 | 61.6 | inactive |
| Gse1 (genetic suppressor element 1, coiled-coil protein) | 2 | 50.9 | 74.6 | inactive |
| Gse1 (genetic suppressor element 1, coiled-coil protein) | 3 | 180 | 83.1 | active |
| Wrap73 (WD repeat containing, antisense to Trp73) | 1 | 79.4 | 57.1 | inactive |
| Wrap73 (WD repeat containing, antisense to Trp73) | 2 | 64.6 | 70.9 | inactive |
| Wrap73 (WD repeat containing, antisense to Trp73) | 3 | 77 | 88.5 | inactive |
| Enoph1 (enolase-phosphatase 1) | 1 | 64 | 95.8 | inactive |
| Enoph1 (enolase-phosphatase 1) | 2 | 80.4 | 96.2 | inactive |
| Enoph1 (enolase-phosphatase 1) | 3 | 81.3 | 97 | inactive |

6 entries already listed, ordered by “GFP, % of control”, descending:
| gene symbol | siRNA no. | GFP, % of control | viability (ATP), % of control | outcome |
| --- | --- | --- | --- | --- |
| Gse1 (genetic suppressor element 1, coiled-coil protein) | 3 | 180 | 83.1 | active |
| Wrap73 (WD repeat containing, antisense to Trp73) | 1 | 79.4 | 57.1 | inactive |
| Wrap73 (WD repeat containing, antisense to Trp73) | 3 | 77 | 88.5 | inactive |
| Wrap73 (WD repeat containing, antisense to Trp73) | 2 | 64.6 | 70.9 | inactive |
| Enoph1 (enolase-phosphatase 1) | 1 | 64 | 95.8 | inactive |
| Gse1 (genetic suppressor element 1, coiled-coil protein) | 2 | 50.9 | 74.6 | inactive |
